Data reported in PMC9772058.
No constants are given. Whether binding was seen depends on the method and setting. In cells and extracts the contact can be indirect. Some results given as binding are weak or reduced against the parent protein; the word gives no strength.

Sequences of proteins named here, by UniProt entry; tags and fusion partners are left off.
UniProt Q9ULZ3: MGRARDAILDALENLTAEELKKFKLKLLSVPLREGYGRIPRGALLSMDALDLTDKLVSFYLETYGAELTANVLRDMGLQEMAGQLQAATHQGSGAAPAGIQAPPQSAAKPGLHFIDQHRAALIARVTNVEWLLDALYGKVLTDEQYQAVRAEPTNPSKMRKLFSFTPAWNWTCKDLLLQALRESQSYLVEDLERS
UniProt P29466: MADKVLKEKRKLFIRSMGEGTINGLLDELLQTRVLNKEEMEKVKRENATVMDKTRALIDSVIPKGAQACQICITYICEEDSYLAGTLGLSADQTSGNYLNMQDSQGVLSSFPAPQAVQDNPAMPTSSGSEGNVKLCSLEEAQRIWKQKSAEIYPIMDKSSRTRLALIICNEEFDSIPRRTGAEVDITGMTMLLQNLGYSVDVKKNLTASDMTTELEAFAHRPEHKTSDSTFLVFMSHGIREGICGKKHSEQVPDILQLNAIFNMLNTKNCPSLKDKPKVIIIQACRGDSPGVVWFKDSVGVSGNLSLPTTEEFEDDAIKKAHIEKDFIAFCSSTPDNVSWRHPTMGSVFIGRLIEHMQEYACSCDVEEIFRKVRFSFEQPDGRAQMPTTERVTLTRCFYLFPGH

Legend:
[1] = target: apoptosis-associated speck-like protein containing a CARD domain (ASC), human (human (endogenous in THP-1)) (UniProt Q9ULZ3); experiment: co-IP; lysates of LPS-primed BMDMs or PMA-differentiated THP-1 macrophages (MSU crystals 100 ug/ml 24 h, with or without LXA4 50-150 nM; also TXNRD2 siRNA in THP-1); antibody against ASC (1:100) overnight at 4°C, Protein G agarose beads 2 h at 4°C; Western blotting
[2] = target: T1, apoptosis-associated speck-like protein containing a CARD domain (ASC), mouse (mouse (endogenous in BMDMs)) (UniProt Q9EPB4); experiment: as above
T1 sequence: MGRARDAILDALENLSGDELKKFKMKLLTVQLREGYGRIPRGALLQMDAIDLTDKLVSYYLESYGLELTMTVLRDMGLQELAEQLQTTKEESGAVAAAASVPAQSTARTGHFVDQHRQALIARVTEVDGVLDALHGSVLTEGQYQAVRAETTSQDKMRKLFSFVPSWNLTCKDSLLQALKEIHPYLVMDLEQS

Molecule | binding [1] | binding [2]
pro-caspase-1, human (from UniProt P29466 1-404) | binds | 
pro-caspase-1, mouse (protein, UniProt P29452 1-402) MADKILRAKRKQFINSVSIGTINGLLDELLEKRVLNQEEMDKIKLANITAMDKARDLCDHVSKKGPQASQIFITYICNEDCYLAGILELQSAPSAETFVATEDSKGGHPSSSETKEEQNKEDGTFPGLTGTLKFCPLEKAQKLWKENPSEIYPIMNTTTRTRLALIICNTEFQHLSPRVGAQVDLREMKLLLEDLGYTVKVKENLTALEMVKEVKEFAACPEHKTSDSTFLVFMSHGIQEGICGTTYSNEVSDILKVDTIFQMMNTLKCPSLKDKPKVIIIQACRGEKQGVVLLKDSVRDSEEDFLTDAIFEDDGIKKAHIEKDFIAFCSSTPDNVSWRHPVRGSLFIESLIKHMKEYAWSCDLEDIFRKVRFSFEQPEFRLQMPTADRVTLTKRFYLFPGH |  | binds
